In the assay the test system is WM266.4. Description: Single-dose cell viability of forskolin-treated cells with MAPK-pathway and HDAC inhibitors. Type of assay: cell-based. Particulars: sub-lethal doses; Panobinostat 10 nM, Vorinostat 1.5 μM, Entinostat 1.5 μM; 96 hrs. On the procedure:
Melanoma cell lines were seeded into 384-well, white-walled, clear bottom plates at the following densities; A375, 500 cells/well; SKMEL19, 1500 cells/well; SKMEL28, 1000 cells/well; UACC62, 1000 cells/well; WM266.4, 1800 cells/well; G361, 1200 cells/well, COLO-679, 2000 cells/well; SKMEL5, 2000 cells/well). Twenty-four hours after seeding, serial dilutions of the relevant compound were prepared in DMSO to 1000× stocks. Drug stocks were then diluted 1:100 into appropriate growth media and added to cells at a dilution of 1:10 (lx final), yielding drug concentrations ranging from 100 μM to 1×10-5 μM, with the final volume of DMSO not exceeding 1%. When indicated, forskolin (10 μM), IBMX (100 μM), dbcAMP (100 μM) were added concurrent with MAPK-pathway inhibitors. Cells were incubated for 96 h following addition of drug. Cell viability was measured using CellTiterGlo viability assay (Promega). Viability was calculated as a percentage of control (DMSO treated cells). A minimum of six replicates were performed for each cell line and drug combination. Data from growth-inhibition assays were modeled using a nonlinear regression curve fit with a sigmoid dose-response. […] Sigmoid-response curves that crossed the 50% inhibition point at or above 1.0 μM or 10.0 μM have GI50 values annotated as >1.0 μM or >10.0 μM, respectively. […]

The structures appear in SMILES notation.

For `O=C(CCCCCCC(=O)Nc1ccccc1)NO` [Vorinostat], the “sensitivity of forskolin-treated cells to MAPK-pathway inhibitors” value is “restored sensitivity to MAPK-pathway inhibitors to levels approaching parental cells”.

The record behind these values is patent US20150141470A1, “DIAGNOSTIC AND TREATMENT METHODS IN PATIENTS HAVING OR AT RISK OF DEVELOPING RESISTANCE TO CANCER THERAPY” (The Broad Institute, Inc., priority 2012, published 2015).
